The test addresses T1, GST-PhoRC (M. tuberculosis) (UniProt P71815).
T1 sequence: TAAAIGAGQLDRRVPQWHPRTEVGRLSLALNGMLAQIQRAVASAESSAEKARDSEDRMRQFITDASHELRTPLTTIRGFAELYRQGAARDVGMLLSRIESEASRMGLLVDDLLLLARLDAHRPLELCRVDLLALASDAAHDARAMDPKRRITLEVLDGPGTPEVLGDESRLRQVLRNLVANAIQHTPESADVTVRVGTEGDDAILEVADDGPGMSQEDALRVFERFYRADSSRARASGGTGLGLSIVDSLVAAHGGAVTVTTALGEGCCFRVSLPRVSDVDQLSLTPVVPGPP
Description: pull-down; both purified.

Results are given in words; binding and its absence hold for the method and conditions named. Tags and fused reporters may be left off the sequences shown.

This passage reports binding results from publication PMC10723718.

B1: His6-PrrA (protein, UniProt P9WGM1 1-233)
chain: MDTGVTSPRVLVVDDDSDVLASLERGLRLSGFEVATAVDGAEALRSATENRPDAIVLDINMPVLDGVSVVTALRAMDNDVPVCVLSARSSVDDRVAGLEAGADDYLVKPFVLAELVARVKALLRRRGSTATSSSETITVGPLEVDIPGRRARVNGVDVDLTKREFDLLAVLAEHKTAVLSRAQLLELVWGYDFAADTNVVDVFIGYLRRKLEAGGGPRLLHTVRGVGFVLRMQ
In the case of B1, the binding entry is recorded as “no binding”.
